Part of at least one peptide drawing is inferred or uncertain, most often the ends. Ends that are not written are not given here.
How the values were obtained:
Format in all cases: cell-based
[1] = test system: P. aeruginosa; assay: Minimal inhibitory concentration, anti-microbial spectrum
[2] = test system: S. pyogenes; assay: as above
[3] = test system: S. cerevisiae; assay: as above
[4] = test system: C. albicans; assay: as above
[5] = test system: P. caudatum; assay: Sensitivity of protozoa, minimal disruptive concentration; conditions: physical disruption, osmotic swelling
[6] = test system: T. pyriformis; assay: as above; conditions: physical disruption, osmotic swelling
[7] = test system: Vero cells; assay: Activity against malignant cells (Trypan Blue permeabilization); conditions: confluent lawn, 37° C. for 30 min
[8] = test system: Ehrlich Ascites; assay: as above; conditions: confluent lawn, 37° C. for 30 min
[9] = test system: Microsporum canis; assay: MIC against fungi (agarose dilution); conditions: 30° C. for 24-48 hours, no visible growth
[10] = test system: Trichophyton rubrum; assay: MIC against fungi (agarose dilution); conditions: 30° C. for 24-48 hours, no visible growth
[11] = test system: Trichophyton mentagrophytes; assay: MIC against fungi (agarose dilution); conditions: 30° C. for 24-48 hours, no visible growth
[12] = test system: Candida albicans; assay: MIC against fungi (agarose dilution); conditions: 30° C. for 24-48 hours, no visible growth
[13] = test system: Saccharomyces Cerevisiae; assay: MIC against fungi (agarose dilution); conditions: 30° C. for 24-48 hours, no visible growth
[14] = test system: Cryptococcus neoformans; assay: MIC against fungi (agarose dilution); conditions: 30° C. for 24-48 hours, no visible growth
[15] = test system: Melanoma (SK-MEL-1); assay: Cytotoxicity against human tumor cell lines (vital dye conversion); conditions: 24 hours incubation
[16] = test system: Lymphoma (Daudi); assay: as above; conditions: 24 hours incubation
[17] = test system: Leukemia (CCRF-CEM); assay: as above; conditions: 24 hours incubation
[18] = test system: Colon (Colo-3208M); assay: as above; conditions: 24 hours incubation
[19] = test system: Small Cell Lung Carcinoma (H69); assay: as above; conditions: 24 hours incubation
[20] = test system: Non-small lung Carcinoma (H22); assay: as above; conditions: 24 hours incubation
[21] = test system: Squamus Cell Lung Carcinoma (SK-MES-1); assay: as above; conditions: 24 hours incubation

GFGSFLGLALKAALKIGANALGGAPQQ [CPF (I)]
MINIMAL INHIBITORY CONCENTRATION [1]: 50 to 100 µg/mL | MINIMAL INHIBITORY CONCENTRATION [2]: 100 to 200 µg/mL | MINIMAL INHIBITORY CONCENTRATION [3]: 100 to 200 µg/mL | MINIMAL INHIBITORY CONCENTRATION [4]: 50 to 100 µg/mL | Minimal Disruptive Concentration [5]: 10 µg/mL | Minimal Disruptive Concentration [6]: 10 µg/mL | concentration at which greater than 90% of the cells were killed [7]: 250 µg/mL | concentration at which greater than 90% of the cells were killed [8]: 250 µg/mL

GFASFLGKALKAALKIGANLLGGTPQQ [CPF (II)]
MINIMAL INHIBITORY CONCENTRATION [1]: 50 to 100 µg/mL | MINIMAL INHIBITORY CONCENTRATION [2]: 100 to 200 µg/mL | MINIMAL INHIBITORY CONCENTRATION [3]: 100 to 200 µg/mL | MINIMAL INHIBITORY CONCENTRATION [4]: 50 to 100 µg/mL | Minimal Disruptive Concentration [5]: 10 µg/mL | Minimal Disruptive Concentration [6]: 10 µg/mL | concentration at which greater than 90% of the cells were killed [7]: 250 µg/mL | concentration at which greater than 90% of the cells were killed [8]: 250 µg/mL | MIC [9]: 31000 µg/mL | MIC [10]: 62000 µg/mL | MIC [11]: 31000 µg/mL | MIC [12]: 8000 µg/mL | MIC [13]: 16000 µg/mL | MIC [14]: 2000 µg/mL | IC 50 [15]: 52 µg/mL | IC 50 [16]: 107 µg/mL | IC 50 [17]: 33 µg/mL | IC 50 [18]: 68 µg/mL | IC 50 [19]: 23 µg/mL | IC 50 [20]: 20 µg/mL | IC 50 [21]: 20 µg/mL
